Compound in the test: COc1ccc(Cn2ccc3cc(C)c(C(=O)NO)cc32)cc1
Put plainly: dose-dependent thermal stabilisation call (2D-TPP, DLPTP, 10% FDR) (binary (1 = stabilised)); higher = stabilised by the compound. The settings on record: system: HL-60 intact cells; concentration range 0.04-10 µM. The procedure:
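2D thermal proteome profiling in intact HL-60 cells treated with BRD-3811 (0, 0.04, 0.29, 2, 10 uM) for 90 min at 37 C, then heated 3 min at one of 12 temperatures (42-63.9 C). Soluble protein was quantified by TMT10 MS. The value is the DLPTP call of the paper: dose-dependent thermal stabilisation over all temperatures at 10% FDR (F-test of a dose-response against a flat model); one experiment, one call per tested protein.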

By UniProt entry, the sequences of proteins in these tests, tags left out. Where a name states a change or a piece, a line headed by the entry shows the natural chain unless it says otherwise.
UniProt Q01469, whole entry: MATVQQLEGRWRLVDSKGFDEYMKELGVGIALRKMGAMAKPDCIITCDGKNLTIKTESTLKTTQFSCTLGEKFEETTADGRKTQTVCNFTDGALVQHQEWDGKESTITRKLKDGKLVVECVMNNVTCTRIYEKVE
UniProt Q6P587: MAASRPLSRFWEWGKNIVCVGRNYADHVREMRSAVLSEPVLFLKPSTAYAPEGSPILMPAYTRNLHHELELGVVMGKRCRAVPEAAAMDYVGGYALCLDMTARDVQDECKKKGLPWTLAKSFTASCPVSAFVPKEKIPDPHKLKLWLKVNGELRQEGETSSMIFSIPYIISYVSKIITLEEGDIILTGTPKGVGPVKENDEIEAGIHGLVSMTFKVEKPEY
UniProt Q6IA86: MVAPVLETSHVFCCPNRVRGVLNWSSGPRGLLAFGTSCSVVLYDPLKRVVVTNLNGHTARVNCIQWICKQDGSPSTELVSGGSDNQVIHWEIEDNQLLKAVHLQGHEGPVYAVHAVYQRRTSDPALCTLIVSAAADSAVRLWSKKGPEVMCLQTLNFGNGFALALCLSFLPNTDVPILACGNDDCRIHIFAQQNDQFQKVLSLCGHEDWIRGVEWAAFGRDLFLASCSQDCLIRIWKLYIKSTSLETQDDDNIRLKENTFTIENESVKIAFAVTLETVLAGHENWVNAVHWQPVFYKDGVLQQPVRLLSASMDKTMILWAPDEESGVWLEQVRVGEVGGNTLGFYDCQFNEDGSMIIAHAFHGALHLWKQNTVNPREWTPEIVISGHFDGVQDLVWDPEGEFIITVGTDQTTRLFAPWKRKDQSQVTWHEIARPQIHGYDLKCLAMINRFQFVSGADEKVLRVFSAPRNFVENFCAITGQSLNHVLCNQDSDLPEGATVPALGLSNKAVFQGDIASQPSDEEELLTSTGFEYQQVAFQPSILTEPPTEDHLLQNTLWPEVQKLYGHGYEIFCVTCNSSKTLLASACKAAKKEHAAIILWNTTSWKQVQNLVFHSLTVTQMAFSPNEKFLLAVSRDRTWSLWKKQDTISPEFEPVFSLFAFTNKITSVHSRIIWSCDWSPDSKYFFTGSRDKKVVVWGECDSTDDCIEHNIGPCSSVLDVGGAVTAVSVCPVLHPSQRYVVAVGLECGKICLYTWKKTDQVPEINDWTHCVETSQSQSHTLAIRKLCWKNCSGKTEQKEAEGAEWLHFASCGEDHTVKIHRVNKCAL
UniProt O94919: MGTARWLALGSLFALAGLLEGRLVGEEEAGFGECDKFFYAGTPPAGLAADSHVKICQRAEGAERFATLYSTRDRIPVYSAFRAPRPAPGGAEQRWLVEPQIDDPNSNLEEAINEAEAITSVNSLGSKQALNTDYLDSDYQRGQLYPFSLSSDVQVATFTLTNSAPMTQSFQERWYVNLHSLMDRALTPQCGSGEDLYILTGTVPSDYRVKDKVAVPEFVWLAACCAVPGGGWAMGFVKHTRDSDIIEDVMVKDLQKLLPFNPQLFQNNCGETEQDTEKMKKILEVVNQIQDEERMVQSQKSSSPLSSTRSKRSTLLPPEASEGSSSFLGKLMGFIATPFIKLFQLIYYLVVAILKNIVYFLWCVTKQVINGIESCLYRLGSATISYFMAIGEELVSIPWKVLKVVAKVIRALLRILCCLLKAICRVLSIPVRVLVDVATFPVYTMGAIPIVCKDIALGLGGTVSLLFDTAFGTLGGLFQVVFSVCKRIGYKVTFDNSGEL
UniProt P55039: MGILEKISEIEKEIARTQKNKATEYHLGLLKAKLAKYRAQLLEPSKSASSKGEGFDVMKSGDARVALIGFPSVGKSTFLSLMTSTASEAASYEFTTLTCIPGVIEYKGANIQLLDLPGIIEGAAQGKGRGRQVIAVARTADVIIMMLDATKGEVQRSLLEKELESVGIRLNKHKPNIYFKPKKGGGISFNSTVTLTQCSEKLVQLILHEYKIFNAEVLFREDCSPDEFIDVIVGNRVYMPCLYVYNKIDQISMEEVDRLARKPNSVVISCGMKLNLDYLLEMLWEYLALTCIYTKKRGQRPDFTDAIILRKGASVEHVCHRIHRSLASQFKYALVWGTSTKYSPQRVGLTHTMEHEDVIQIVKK
UniProt P29692: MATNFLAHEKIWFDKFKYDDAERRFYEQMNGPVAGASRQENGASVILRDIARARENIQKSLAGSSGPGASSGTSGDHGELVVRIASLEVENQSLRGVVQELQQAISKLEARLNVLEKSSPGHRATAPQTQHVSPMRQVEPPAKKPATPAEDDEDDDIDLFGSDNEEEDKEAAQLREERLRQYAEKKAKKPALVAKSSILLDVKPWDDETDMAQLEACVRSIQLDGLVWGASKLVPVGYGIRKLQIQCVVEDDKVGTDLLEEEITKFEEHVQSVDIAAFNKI

This is one part of the list.

The results in this text go back to the supplement of paper PMC7666118.

As for FABP5 (UniProt Q01469), the “dose-dependent thermal stabilisation call” value was inactive: 0.
Regarding FAHD1 (UniProt Q6P587), the “dose-dependent thermal stabilisation call” value is inactive: 0.
As for ELP2 (UniProt Q6IA86), the “dose-dependent thermal stabilisation call” value is inactive: 0.
Take ENDOD1 (UniProt O94919): the “dose-dependent thermal stabilisation call” value was inactive: 0.
Take DRG2 (UniProt P55039): the “dose-dependent thermal stabilisation call” value is inactive: 0.
With EEF1D (UniProt P29692) the figure was inactive: 0; with EIF2C1 (UniProt Q9UL18), inactive: 0.
